PubChem BioAssay AID1347076 (National Center for Advancing Translational Sciences (NCATS), 2019)
Among all 400,000 compounds or so, about 13,000 (3.2%) were called active. This list was built around the results that the source calls inconclusive (neither active nor inactive); the mix of calls is not that of the screen. Calls come from the whole dose curve; as a rule, active = well fitted cell-killing curve with a large enough effect; inconclusive = small, poorly fitted or top-dose-only effect, or effect the other way; inactive = flat fitted curve, though single readings scatter. Potencies of inconclusive entries are doubtful fits and often do not repeat.

Test: qHTS assay for MDR1-selective chemotherapeutics: Primary screen using the drug-selected MDR subline cells KB-V1; note: nearly all actives have a fitted effect of over 60% in size
Conditions: KB-V1 MDR cells viability, CellTiter-Glo, 72 h; activity change, negative = cytotoxicity: at 46.1 µM (top of the series)
Outline: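 Compound-treated KB-V1 multidrug-resistant cells, 72 h, 37 degrees C; viability by CellTiter-Glo. Fitted qHTS curves give the values.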
% is set by controls: 0 for no effect and ±100 for the full control effect; potency is the fitted concentration of half-maximal effect.

| Structure (SMILES) | activity change, negative = cytotoxicity | Potency |
| --- | --- | --- |
| O=C(CCC(=O)c1cccs1)OCc1ccc([N+](=O)[O-])cc1 | inactive: 17.3% | – |
| Cc1c(Br)c([N+](=O)[O-])nn1CC(=O)NCC1CCCO1 (stereo not given) | – | inconclusive: 16.4 µM [rising, single point] |
| CCCNC(=O)C1(C)CCCN(Cc2cc3ccccc3o2)C1 (stereo not given) | inactive: -1.24% | – |
| COc1ccc(NC(=O)C2Cc3c(-c4ccccc4Oc4ccccc4)ccnc3O2)cn1 (stereo not given) | – | inconclusive: 23.1 µM [cytotoxic, single point] |
| CCSc1nnc(Cc2cc(=O)[nH]c(=O)[nH]2)n1-c1ccc(F)cc1 | – | inconclusive: 16.4 µM [rising, single point] |
| Cc1ccc(NC(=S)/N=C(\N)Nc2nc(C)c3ccccc3n2)cc1C | – | inconclusive: 18.4 µM [cytotoxic, partial curve] |
| Cc1cccc(OCCC(=O)Nc2ccc(Cl)cc2F)c1 | inactive: 10.9% | – |
| Cn1nnnc1SC(C(=O)Nc1cccc(C(F)(F)F)c1)c1ccccc1 (stereo not given) | – | inconclusive: 20.6 µM [cytotoxic, single point] |
| COc1ccc2c(c1)C1=NN(/C(C)=C/C(C)=O)C(c3cccc(F)c3)C1CC2 (stereo not given) | inactive: -22.1% | – |
| CCCC(=O)c1ccc2c(c1)OCCO2 | inactive: 5.94% | – |
| O=[N+]([O-])c1ccc(CN2CC(N3CC=CC3)CS2(=O)=O)cc1 (stereo not given) | inactive: -6.04% | – |
| COC(=O)c1c(-c2ccncc2)csc1NC(=O)c1ccoc1C | – | active: 6.51 µM |
| COc1cc(C(=O)Nc2nnc(-c3sccc3C)s2)cc(OC)c1OC | – | inconclusive: 29.1 µM [cytotoxic, single point] |
| Cn1nc2c(c1C(=O)N1CCCC(C(=O)c3cc(F)ccc3F)C1)CCCC2 (stereo not given) | inactive: -11.8% | – |
| Cc1ccc(C)c(N2CCN(C(=O)c3cc(S(=O)(=O)N4CCC(C)CC4)cn3C)CC2)c1 | – | inconclusive: 29.1 µM [cytotoxic, single point] |
| CCOC(=O)c1c(C)[nH]c(C(=O)COC(=O)C2(C)CC2(Cl)Cl)c1C (stereo not given) | – | active: 13 µM |
| CCOC(=O)C1(C)CCCN1C(=O)c1snnc1C (stereo not given) | inactive: 1.37% | – |
| Cc1c(C(=O)NCCC#N)sc(=O)n1Cc1ccc(F)cc1 | inactive: -9.08% | – |
| CC(C)c1ccc(-n2cccc2/C=C2/C(=N)N3C=CSC3=NC2=O)cc1 | – | active: 20.6 µM |
| NS(=O)(=O)c1ccc(S(=O)(=O)N2CCN(C3CCCC3)CC2)cc1 | inactive: 19% | – |
| COc1cccc(/C=N/n2c(SC)nnc2-c2ccccc2)c1OC | – | inconclusive: 16.4 µM [cytotoxic, single point] |
| CCC(C)NC(=O)c1[nH]c2cc(C)ccc2c1Sc1ccc(Cl)cc1 (stereo not given) | – | inconclusive: 16.4 µM [rising, single point] |
| OC1C2(Cc3ccccc3)CN3CCN(C2)CC1(Cc1ccccc1)C3 (stereo not given) | inactive: -7.5% | – |
| Cc1ccc2nc(CSc3nnc(-c4ccco4)n3-c3ccccc3)cc(=O)n2c1 | – | active: 10.3 µM |

For reference, 4 of the compounds above.

| Structure (SMILES) | activity change, negative = cytotoxicity | Potency |
| --- | --- | --- |
| Cn1nnnc1SC(C(=O)Nc1cccc(C(F)(F)F)c1)c1ccccc1 (stereo not given) | – | inconclusive: 20.6 µM [cytotoxic, single point] |
| COc1ccc2c(c1)C1=NN(/C(C)=C/C(C)=O)C(c3cccc(F)c3)C1CC2 (stereo not given) | inactive: -22.1% | – |
| CCCC(=O)c1ccc2c(c1)OCCO2 | inactive: 5.94% | – |
| O=[N+]([O-])c1ccc(CN2CC(N3CC=CC3)CS2(=O)=O)cc1 (stereo not given) | inactive: -6.04% | – |

Next compounds follow:

| Structure (SMILES) | activity change, negative = cytotoxicity | Potency |
| --- | --- | --- |
| Clc1cccc(CNc2ccn3nc(-c4cccc(OCc5ccccc5)c4)cc3n2)c1 | inactive: -11.8% | – |
| O=c1[nH]c(COc2ccccc2)nc2ccccc12 | – | inconclusive: 29.1 µM [cytotoxic, single point] |
| Cc1cccc(N2CCN(C(=O)C3CCN(S(=O)(=O)c4c(C)noc4C)CC3)CC2)c1C | – | inconclusive: 2.06 µM [cytotoxic, full curve, poor fit] |
| Cc1cc2c(cc1C)-n1nnnc1C(N(C)CCc1ccccc1)C(=O)N2 (stereo not given) | – | inconclusive: 13 µM [cytotoxic, partial curve] |
| COc1ccc2c(CNCCc3cccs3)c(C(=O)O)n(Cc3ccccc3C)c2c1 | inactive: 4.56% | – |
| CCN(CC)S(=O)(=O)c1ccc(N2CCOCC2)c(NC(=O)C2CSC3(C)CCC(=O)N23)c1 (stereo not given) | – | inconclusive: 7.31 µM [cytotoxic, partial curve, poor fit] |
| O=C(CN1C(=O)COc2ccc(S(=O)(=O)N3CCCCCC3)cc21)N1CCN(c2cccc(C(F)(F)F)c2)CC1 | – | inconclusive: 2.31 µM [cytotoxic, full curve] |
| C/C(CC(=O)Nc1ccc2c(c1)OCCO2)=N\NC(=O)COc1ccc(Cl)c(C)c1 | – | inconclusive: 29.1 µM [rising, single point] |
| Cc1ccc(-n2c(C)cc(C(=O)COC(=O)c3ccc[nH]c3=O)c2C)cc1 | – | active: 18.4 µM |
| CCc1ccc2c(c1)CCCN2C(=O)c1ccccc1C(=O)O | – | inconclusive: 16.4 µM [cytotoxic, single point] |
| Cc1cccc(C)c1OCC(=O)Nc1c(C(=O)c2ccc(Br)cc2)oc2ccccc12 | inactive: 13.3% | – |
| O=C(O)c1ccccc1N=Cc1c(O)n(-c2nccs2)c(=O)c2ccccc12 | inactive: 0% | – |
| COc1ccccc1N(C)S(=O)(=O)c1ccc(C(=O)Nc2nc(C)cs2)cc1 | – | inconclusive: 20.6 µM [cytotoxic, single point] |
| Cc1csc2ncnc(N3CCN(S(=O)(=O)c4cccc(C(F)(F)F)c4)CC3)c12 | – | inconclusive: 14.6 µM [cytotoxic, partial curve] |
| COc1ccccc1OCC(=O)N1CCN(c2ccccc2OC)CC1 | – | inconclusive: 16.4 µM [cytotoxic, partial curve] |
| CSCCC(NC(=O)c1ccco1)C(=O)NC1CCCCCC1 (stereo not given) | – | inconclusive: 10.3 µM [cytotoxic, partial curve] |
| COc1cccc(N(CC(=O)NC2CCCCC2)C(=O)Cn2nnc(-c3ccc(C)o3)n2)c1 | – | inconclusive: 7.31 µM [cytotoxic, full curve] |
| C=CCn1c(C)cc(C(=O)CSc2nnc(NC(C)C)s2)c1C | – | inconclusive: 32.6 µM [cytotoxic, partial curve, poor fit] |
| COCCCNC(=O)CSc1nc2cc(C(=O)NCCOC)ccc2c(=O)n1Cc1ccc2c(c1)OCO2 | inactive: 14.8% | – |
| N#CNC(=Nc1cccc(F)c1)SCc1ccccc1F | – | inconclusive: 29.1 µM [rising, single point] |
| CCCCN1C(=N)N([C@@H](C)CN2CCC[C@H]2CN2C(N)=NC[C@H]2CC(C)C)C[C@H]1Cc1ccccc1 | inactive: 0% | – |
| O=C(CCSc1ccc(F)cc1)NNC(=O)c1ccc([N+](=O)[O-])cc1 | – | inconclusive: 29.1 µM [rising, single point] |
| CCOc1cc(S(=O)(=O)N2CC=C(c3ccc(F)cc3)CC2)c(OCC)cc1-n1cnnn1 | – | inconclusive: 20.6 µM [cytotoxic, partial curve] |
| COc1ccc2cc1Oc1ccc(cc1)CC1c3c(cc(OC)c4c3Oc3cc5c(cc3O4)CCNC5C2)CCN1C (stereo not given) | – | inconclusive: 14.6 µM [cytotoxic, partial curve, poor fit] |

| Structure (SMILES) | activity change, negative = cytotoxicity | Potency |
| --- | --- | --- |
| CC1(C)C(=O)N(CCN2CCC(C(=O)c3ccc(F)cc3)CC2)c2ccccc21 | inactive: -17.8% | – |
| Cc1ccc(NC(=O)c2nc[nH]c2C(=O)NCCN(CCNC(=O)c2[nH]cnc2C(=O)Nc2ccc(C)cc2)CCNC(=O)c2[nH]cnc2C(=O)Nc2ccc(C)cc2)cc1 | – | inconclusive: 29.1 µM [rising, single point] |
| CCOC(=O)c1cc(-c2ccc(N3CCOCC3)cc2)nn1-c1ccccc1C(=O)O | inactive: -3.15% | – |
| O=C(CSC1=NCCS1)NC1CCCC1 | – | inconclusive: 11.6 µM [rising, partial curve, poor fit] |
| Cc1cccc(C(=O)Nc2ccccc2C(=O)OCc2c(C)noc2C)c1 | – | active: 3.26 µM |
| COc1ccc(CCNC(=O)Nc2nc(C(N)COCc3ccccc3)cs2)cc1OC (stereo not given) | inactive: 18.5% | – |
| COc1cc(-c2ccc3cc(OC)c(OC)c(OC)c3c2)cc(OC)c1OC | – | inconclusive: 13 µM [cytotoxic, partial curve] |
| CC1=C(C(=O)N(C)C)CC(CC(=O)NC(c2ccccc2)c2ccccc2)C(=O)N1CCCN1CCCC1=O (stereo not given) | inactive: 0% | – |
| O=C(c1cccc(F)c1)N1CCN(CC2CC3C=CC2C3)CC1 (stereo not given) | – | inconclusive: 23.1 µM [cytotoxic, partial curve] |
| NC(=O)c1sc2nc(-c3cccs3)ccc2c1N | – | inconclusive: 18.4 µM [cytotoxic, single point] |
| Cc1ccc2nc(CN3CCN(C(=O)Nc4ccc(C)c(F)c4)CC3)oc2c1 | inactive: -3.77% | – |
| CCN(CC(=O)Nc1c(F)cccc1F)C(=O)CCCOc1ccc(OC)cc1 | – | inconclusive: 29.1 µM [cytotoxic, single point] |
| O=C(C[C@@H]1C/C=C\C[C@H](Cc2ccc(F)cc2)C(=O)OCCNC1=O)N[C@H](CO)Cc1ccccc1 | – | inconclusive: 14.6 µM [rising, single point] |
| CCOc1ccc(CCNC(=O)Cn2c(=O)c3cccn3c3cccnc32)cc1 | – | inconclusive: 0.0146 µM [cytotoxic, full curve] |
| COC(=O)c1ccc(NC(=O)CC2C(=O)N(c3ccc(C)cc3)C(=O)N2CC(C)C)cc1 (stereo not given) | – | active: 23.1 µM |
| COC(=O)c1ccc(OC)c(Cn2c(=O)n(-c3cccc(Cl)c3)c(=O)c3c4c(sc32)CN(C(C)=O)CC4)c1 | inactive: -2.37% | – |
| O=C(O)C1CCCCN1C(=O)c1ccc(S(=O)(=O)N2CCCCCC2)cc1 (stereo not given) | inactive: 0% | – |
| CC(=O)C1=C(C)Nc2ncnn2C1c1ccc(O)cc1 (stereo not given) | – | inconclusive: 20.6 µM [rising, partial curve, poor fit] |
| O=C(O)c1ccccc1C(=O)NNc1ccc(F)cc1F | – | inconclusive: 29.1 µM [rising, single point] |
| COc1ccc(-c2csc3ncnc(N4CCN(c5ccccc5)CC4)c23)cc1 | – | inconclusive: 29.1 µM [cytotoxic, single point] |
| O=C(/C=C/c1ccc(Cl)c([N+](=O)[O-])c1)c1cccnc1 | – | inconclusive: 25.9 µM [cytotoxic, single point] |
| CCOc1ccc(S(=O)(=O)N(CC)CC)cc1NC(=O)CSCc1c(C)noc1C | – | active: 7.31 µM |
